Some of these results come from one statement about several compounds together.
How the values were obtained:
Assay type in all cases: in vivo
Spodoptera littoralis = Spodoptera littoralis (Egyptian cotton leafworm) leaf disc spray test; settings: 200 ppm sprayed on cotton leaf discs, L1 larvae, mortality, feeding behavior, growth regulation 3 days after treatment
Tetranychus urticae = Tetranychus urticae (two-spotted spider mite) bean leaf disc spray test; settings: 200 ppm sprayed on bean leaf discs, mite populations of mixed ages, egg, larval and adult mortality 8 days later
Plutella xylostella = Plutella xylostella (diamond back moth) artificial diet test; settings: 200 ppm (concentration in well 18 ppm), L2 larvae, larval mortality and growth regulation after 6 days
Thrips tabaci = Thrips tabaci (onion thrips) sunflower leaf disc spray test; settings: 200 ppm sprayed on sunflower leaf discs, population of mixed ages, mortality after 7 days

Cc1cc(C2=NOC(c3cc(Cl)cc(Cl)c3)(C(F)(F)F)C2Br)ccc1C(=O)NC1C[S+]([O-])C1 (stereo not drawn) [A7]
at least 80%: control of Spodoptera littoralis (Spodoptera littoralis) | control of Tetranychus urticae (Tetranychus urticae) | control of Plutella xylostella (Plutella xylostella) | control of Thrips tabaci (Thrips tabaci)

Cc1cc(C2=NOC(c3cc(Cl)cc(Cl)c3)(C(F)(F)F)C2Br)ccc1C(=O)NCc1nc2ccccc2[nH]1 (stereo not drawn) [A5]
at least 80%: control of Tetranychus urticae (Tetranychus urticae) | control of Plutella xylostella (Plutella xylostella)

Cc1cc(N2CC2(c2cc(Cl)cc(Cl)c2)C(F)(F)F)ccc1C(=O)NC1CSC1 (stereo not drawn) [A4]
at least 80%: control of Spodoptera littoralis (Spodoptera littoralis) | control of Tetranychus urticae (Tetranychus urticae) | control of Plutella xylostella (Plutella xylostella) | control of Thrips tabaci (Thrips tabaci)

4-[5-(3,5-dichloro-phenyl)-5-methyl-2-phenylmethyl-isoxazolidin-3-yl]-N-butyl-2-methyl-benzamide [A23]
at least 80%: control of Plutella xylostella (Plutella xylostella) | control of Thrips tabaci (Thrips tabaci)

— patent US8980892B2, “Insecticidal compounds” (Syngenta Crop Protection LLC, priority 2009, dated 2015)
